Data as given in US7279502B2 (Cellgate, Inc., priority 1999, dated 2007).

Experiment: general procedure: solution-phase peptide synthesis; DCC / 1-hydroxybenzotriazole / N-methylmorpholine
[1] = late stage modification step, TFA salt
[2] = coupling step, TFA salt (deprotected intermediates)
[3] = late stage modification step, TFA salt (deprotected intermediates)

Row | Substance | step yield [2] [%] | other results
1 | Lys(Nε-Cbz)-Leu-Gln-β-Ala-β-Lapachone | – | step yield [1]: 98%
2 | Lys(Nε-Cl-Cbz)-Leu-Gln-Leu-β-Lapachone | – | step yield [1]: 65%
3 | Morpholino-Ser(OBn)-Lys(Nε-Cbz)-Leu-Gln-β-Ala-β-Lapachone | 36 | –
4 | Morpholino-Ser(OBn)-Lys(Nε-Cl-Cbz)-Leu-Gln-Leu-β-Lapachone | 81 | –
5 | Morpholino-Ser-Lys-Leu-Gln-Leu-β-Lapachone (SEQ ID NO:12) (SL-11154) | – | step yield [3]: 14%
6 | Morpholino-Ser-Lys-Leu-Gln-β-Ala-β-Lapachone | – | step yield [3]: 24%
7 | Nα-Boc-Lys(Nε-Cbz)-Leu-Gln-β-Ala-β-Lapachone | 42 | –
8 | Nα-Boc-Lys(Nε-Cl-Cbz)-Leu-Gln-Leu-β-Lapachone | 54 | –
